Results published in publication PMC10453226.
Results are given in words; binding and its absence hold for the method and conditions named. Binding seen in cells or lysates may run through a third protein. Some entries that bind do so weakly or less than the wild type.

By UniProt entry, the sequences of proteins in these tests, tags left out.
UniProt O75475: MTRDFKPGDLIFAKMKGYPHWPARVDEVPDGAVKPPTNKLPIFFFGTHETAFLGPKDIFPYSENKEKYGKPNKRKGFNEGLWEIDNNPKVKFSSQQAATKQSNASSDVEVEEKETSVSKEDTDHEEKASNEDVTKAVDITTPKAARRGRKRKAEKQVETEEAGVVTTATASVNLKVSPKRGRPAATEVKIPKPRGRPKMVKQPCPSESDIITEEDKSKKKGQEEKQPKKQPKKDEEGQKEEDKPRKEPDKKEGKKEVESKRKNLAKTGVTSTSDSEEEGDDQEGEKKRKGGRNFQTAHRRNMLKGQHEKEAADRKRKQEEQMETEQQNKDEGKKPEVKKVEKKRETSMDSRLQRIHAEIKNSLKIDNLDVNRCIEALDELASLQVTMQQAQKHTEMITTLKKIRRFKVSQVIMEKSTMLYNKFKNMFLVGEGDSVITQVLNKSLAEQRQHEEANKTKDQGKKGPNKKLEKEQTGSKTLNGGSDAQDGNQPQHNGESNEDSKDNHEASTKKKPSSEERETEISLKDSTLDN
UniProt P04150: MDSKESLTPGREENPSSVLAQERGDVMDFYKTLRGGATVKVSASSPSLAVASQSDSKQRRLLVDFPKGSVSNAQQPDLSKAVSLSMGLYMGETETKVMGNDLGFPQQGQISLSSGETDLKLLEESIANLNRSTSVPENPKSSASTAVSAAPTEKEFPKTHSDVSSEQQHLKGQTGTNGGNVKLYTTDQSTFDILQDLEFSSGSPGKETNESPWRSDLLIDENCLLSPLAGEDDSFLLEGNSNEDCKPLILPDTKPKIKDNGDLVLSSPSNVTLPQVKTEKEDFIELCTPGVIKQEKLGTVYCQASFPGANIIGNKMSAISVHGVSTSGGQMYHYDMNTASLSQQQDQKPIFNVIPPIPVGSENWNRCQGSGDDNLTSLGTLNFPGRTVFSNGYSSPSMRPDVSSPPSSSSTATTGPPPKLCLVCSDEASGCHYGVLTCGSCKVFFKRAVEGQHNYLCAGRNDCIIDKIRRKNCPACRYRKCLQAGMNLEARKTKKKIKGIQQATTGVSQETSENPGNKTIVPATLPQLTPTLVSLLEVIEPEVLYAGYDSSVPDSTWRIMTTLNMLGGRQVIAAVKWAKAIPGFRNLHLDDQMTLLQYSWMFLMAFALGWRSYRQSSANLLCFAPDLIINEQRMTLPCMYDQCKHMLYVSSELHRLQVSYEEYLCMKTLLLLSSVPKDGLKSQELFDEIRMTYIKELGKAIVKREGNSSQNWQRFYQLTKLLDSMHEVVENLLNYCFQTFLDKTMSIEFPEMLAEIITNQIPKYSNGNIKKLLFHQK
UniProt P11387: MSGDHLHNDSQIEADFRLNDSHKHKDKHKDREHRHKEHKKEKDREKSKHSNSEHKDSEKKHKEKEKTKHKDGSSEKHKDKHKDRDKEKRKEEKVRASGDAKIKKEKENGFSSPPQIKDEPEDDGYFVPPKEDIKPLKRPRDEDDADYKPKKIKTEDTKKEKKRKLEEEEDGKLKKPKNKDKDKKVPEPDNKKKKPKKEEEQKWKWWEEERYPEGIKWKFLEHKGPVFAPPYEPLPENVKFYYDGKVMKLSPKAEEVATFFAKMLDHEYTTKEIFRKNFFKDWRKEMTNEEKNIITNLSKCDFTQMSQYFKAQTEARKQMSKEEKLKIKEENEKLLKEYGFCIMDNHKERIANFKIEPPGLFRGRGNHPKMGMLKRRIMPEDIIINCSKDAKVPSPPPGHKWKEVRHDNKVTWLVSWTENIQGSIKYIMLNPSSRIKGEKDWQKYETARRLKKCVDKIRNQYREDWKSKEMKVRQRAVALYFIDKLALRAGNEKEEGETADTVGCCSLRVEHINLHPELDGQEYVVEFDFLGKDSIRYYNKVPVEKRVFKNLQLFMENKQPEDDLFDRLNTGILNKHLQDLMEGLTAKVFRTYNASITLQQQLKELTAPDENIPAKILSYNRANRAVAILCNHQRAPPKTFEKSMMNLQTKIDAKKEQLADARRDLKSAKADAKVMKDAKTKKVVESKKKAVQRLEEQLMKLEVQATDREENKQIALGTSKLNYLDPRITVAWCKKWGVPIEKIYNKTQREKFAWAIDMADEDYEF

Target: Lens epithelium-derived growth factor p75 (human (endogenous in PC3-DR, DU145-DR, 22Rv1-DR)) (UniProt O75475)
Assay: co-IP; endogenous LEDGF/p75 precipitated from whole cell lysates (500 μg soluble protein, non-denaturing lysis buffer) of PC3-DR, DU145-DR and 22Rv1-DR cells with human anti-LEDGF/p75 autoantibodies (1:100) and protein A/G Sepharose, overnight at 4 °C; normal human serum as negative control; cells grown in normal medium with glucocorticoids; in DU145-DR also with and without DNase I treatment of the lysate (15 min); detection by immunoblot

binding | Substance
binds | Glucocorticoid receptor (from UniProt P04150 1-777)
no binding | DNA topoisomerase I (from UniProt P11387 1-765)
